This is an account of results in paper PMC8564633, “SMAC/Diablo controls proliferation of cancer cells by regulating phosphatidylethanolamine synthesis” (Molecular Oncology, 2021).

These are yes or no findings as the source states them, for the method shown. Binding seen in cells or lysates may run through a third protein. A result given as binding can be weak or reduced; the word gives no strength.

The target in the assay is SMAC/Diablo, endogenous (human (endogenous in A549)). As to the kind of experiment: proximity ligation; in‐situ PLA on fixed, permeabilized A549 cells (A549‐SMAC‐KO cells as control); anti‐SMAC (rabbit) and anti‐PSD (mouse).

B1: phosphatidylserine decarboxylase (PSD), endogenous (enzyme, UniProt Q9UG56 53-409)
chain: IHTAPARTMFLLRPLPILLVTGGGYAGYRQYEKYRERELEKLGLEIPPKLAGHWEVALYKSVPTRLLSRAWGRLNQVELPHWLRRPVYSLYIWTFGVNMKEAAVEDLHHYRNLSEFFRRKLKPQARPVCGLHSVISPSDGRILNFGQVKNCEVEQVKGVTYSLESFLGPRMCTEDLPFPPAASCDSFKNQLVTREGNELYHCVIYLAPGDYHCFHSPTDWTVSHRRHFPGSLMSVNPGMARWIKELFCHNERVVLTGDWKHGFFSLTAVGATNVGSIRIYFDRDLHTNSPRHSKGSYNDFSFVTHTNREGVPMRKGEHLGEFNLGSTIVLIFEAPKDFNFQLKTGQKIRFGEALGSL
Consider B1, for which the binding entry is “binds”.
